{"sequences": {"note": "The chains behind the UniProt entries cited, without tags or fusion partners.", "UniProt P18054, whole entry, looked up": "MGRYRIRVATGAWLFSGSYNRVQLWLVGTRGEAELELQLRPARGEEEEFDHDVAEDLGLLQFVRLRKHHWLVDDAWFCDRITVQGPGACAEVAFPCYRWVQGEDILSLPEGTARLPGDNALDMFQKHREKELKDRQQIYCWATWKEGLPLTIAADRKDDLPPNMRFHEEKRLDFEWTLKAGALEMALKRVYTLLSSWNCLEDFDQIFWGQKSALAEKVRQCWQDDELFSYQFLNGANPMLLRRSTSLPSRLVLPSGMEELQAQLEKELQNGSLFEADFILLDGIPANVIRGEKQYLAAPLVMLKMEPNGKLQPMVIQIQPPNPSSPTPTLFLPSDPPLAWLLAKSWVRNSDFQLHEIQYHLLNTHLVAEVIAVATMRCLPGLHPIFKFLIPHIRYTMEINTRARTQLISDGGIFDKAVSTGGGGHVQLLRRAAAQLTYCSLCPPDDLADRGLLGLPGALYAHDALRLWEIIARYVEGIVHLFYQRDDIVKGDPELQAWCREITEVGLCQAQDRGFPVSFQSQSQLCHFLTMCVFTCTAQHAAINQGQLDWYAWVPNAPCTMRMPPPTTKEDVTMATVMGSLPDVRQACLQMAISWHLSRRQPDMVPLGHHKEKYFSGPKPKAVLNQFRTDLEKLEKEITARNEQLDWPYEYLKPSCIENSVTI"}, "source": "PubChem BioAssay AID1671190", "about": "(National Center for Advancing Translational Sciences (NCATS), 2021)", "note": "The campaign covered roughly 580,000 compounds. About 6,100 (1.1%) were called active. Inconclusive results (about 15%) are left out. Calls follow the shape of the dose curve; as a rule, active = well fitted inhibition curve with a large enough effect; inconclusive = small, poorly fitted or top-dose-only effect, or another doubt; inactive = no such curve, though single readings can be large or run the other way. The entries are a selection whose mix differs from that of the whole data set. Where no call is shown, the source filed none. % is scaled to controls: 0 for no effect and ±100 for the full control effect; potency is read from the fitted curve at half-maximal effect."}
{"target": "Polyunsaturated fatty acid lipoxygenase ALOX12 (Homo sapiens) (UniProt P18054)", "assay": "Primary qHTS assay for inhibitors of human arachidonate 12S-lipoxygenase (ALOX12): Round 2", "settings": "purified 12hLO, xylenol orange hydroperoxide absorbance; activity change, negative = inhibition: at 0.00344 µM (top of the series)", "from_the_text": "Assay Provider: Theodore R. Holman Ph.D. University of California, Santa Cruz, California Human lipoxygenase 12hLO is a member of the closely related lipoxygenase family of enzymes which catalyze the site-specific oxidation of arachidonic acid to various hormone precursor molecules and as such is a candidate for drug development in a variety of disease areas, such as cancer and inflammation. Inhibition of 12hLO activity was screened by utilizing arachidonic acid as a substrate. The extent of hydroperoxide product formation was measured by a secondary chromogenic reaction in which xylenol orange (XO, Sigma-Aldrich, cat. number 39,818-7) reacts with the ferric ions produced from the reaction between the hydroperoxide and ferrous ions. The Fe (III)-XO complex is characterized with red-shifted absorbance at 560 nm. A purified preparation of human 12hLO was supplied by Dr. Holman laboratory, University of California, Santa Cruz.\nPROTOCOL TABLE SEQUENCE No. (e.g., 1, 2, 3, etc.); […] (e.g., Cells, Incubation, Reagent, etc.); VALUE; DESCRIPTION 1; Enzyme; 3 uL; 150 nM 12hLO enzyme solution dispensed in 1536-well Greiner black, clear bottom plates. 2; Compound; 23 nL; compounds and controls were added. 3; Incubate; 15 min; room temperature. 4; Substrate; 1 uL; 40 uM arachidonic acid (final concentration). 5; Incubate; 30 min; room temperature. 6; Reagent; 4 uL; Fe-XO solution was added to each well. 7; Incubation; 30 min; room temperature 8; Detector; absorbance; Read 1 at 405 nm absorbance using ViewLux (Perkin-Elmer) CCD imager. 9; Detector; absorbance; Read 2 at 573 nm absorbance using ViewLux (Perkin-Elmer) CCD imager. NOTES (numbers refer to sequence above) 1; 150 nM 12hLO (final concentration) in buffer solution (25 mM Hepes, 0.01% Triton X-100, pH 7.0) was dispensed in columns 1, 2, 5-48. Column 1 is neutral (100% activity). Buffer only was dispensed in columns 3 and 4 as no enzyme negative controls. The plates were covered with metal lids with gas-exchange holes. 2; Compounds were pin transferred via a Kalypsys Pin Tool (Wako USA) in column 5-48. Control compound was transferred in column 2, titration of nordihydroguaiaretic acid (NDGA, Sigma-Aldrich, N5023) with top concentration of 20 mM in DMSO then 1:3 dilution in duplicate. Dilution factor of 23 nL into 4 uL final assay volume. 3; Covered assay plates were incubated for 15 min at room temperature. 4; Substrate was added to start the reaction; 40 uM arachidonic acid (Sigma-Aldrich, St. Louis, MO) was dispensed throughout the plate. 6; Chromogenic detection reagent solution (divalent iron/xylenol orange, Fe-XO) was added to each well: 200 uM xylenol orange, 300 uM ferrous ammonium sulfate prepared freshly in 50 mM sulfuric acid. 8, 9; Two absorbance readouts were obtained at 405 nm and at 573 nm using a ViewLux high-throughput CCD plate imager (Perkin-Elmer). The 573 to 405 (Read 2 / Read 1) absorbance ratio was used to compute reaction progress.", "units": {"activity change, negative = inhibition": "%"}}
{"smiles": "COC(=O)/C=C\\C(=O)OC", "activity change, negative = inhibition": -10.5}
{"smiles": "O=C(NC(=S)NCCC1=CCCCC1)c1ccco1", "Potency": "active: 44.7 µM"}
{"smiles": "CN(C)CCCN1c2ccccc2Sc2ccc(Cl)cc21", "activity change, negative = inhibition": -29.4}
{"smiles": "O=C(COC(=O)C1CC2C=CC1C2)Nc1c(Br)cc([N+](=O)[O-])cc1Br", "note": "(stereo not drawn)", "Potency": "active: 22.4 µM"}
{"smiles": "CCOC(=O)c1[nH]c(C)c(/C(Br)=C/Br)c1C", "Potency": "active: 6.31 µM"}
{"smiles": "Cc1cc(O)c2ccccc2c1O", "activity change, negative = inhibition": 2.91}
{"smiles": "Cc1cccc2sc(NC(=O)C3CCN(S(=O)(=O)c4cc([N+](=O)[O-])ccc4Cl)CC3)nc12", "Potency": "active: 39.8 µM"}
{"smiles": "C[N+](C)(C)CCOC(=O)CCC(=O)OCC[N+](C)(C)C", "activity change, negative = inhibition": 8.93}
{"smiles": "CCCCCCCCCCCCCCCCOP(=O)([O-])OCC[N+](C)(C)C", "activity change, negative = inhibition": 7.55}
{"smiles": "CCOc1ccc2nc3cc(N)ccc3c(N)c2c1", "activity change, negative = inhibition": -58.2}
{"smiles": "CC(=O)OC[C@H]1O[C@@](COC(C)=O)(O[C@H]2O[C@H](COC(C)=O)[C@@H](OC(C)=O)[C@H](OC(C)=O)[C@H]2OC(C)=O)[C@@H](OC(C)=O)[C@@H]1OC(C)=O", "activity change, negative = inhibition": 16.7}
{"smiles": "O=C(COc1ccc(Cl)cc1)N1CCN(Cc2ccc3c(c2)OCO3)CC1", "activity change, negative = inhibition": -29.1}
{"smiles": "CCN(CC)CCOC(=O)C(c1ccccc1)c1ccccc1", "activity change, negative = inhibition": -5.29}
{"smiles": "OC(CCCN1CCCCC1)(c1ccccc1)c1ccccc1", "activity change, negative = inhibition": -11.1}
{"smiles": "COc1cccc(CCC(=O)N2CCC3(CC2)NC(=O)N(c2cccc(F)c2)N3)c1", "Potency": "active: 5.62 µM"}
{"smiles": "Nc1nc2c(s1)C(c1ccccc1Cl)CC(=O)N2", "note": "(stereo not drawn)", "Potency": "active: 20 µM"}
{"smiles": "COC(=O)c1cc(Cl)c(NC(C)=O)cc1OC", "activity change, negative = inhibition": -20.6}
{"smiles": "CC(C)(C)CC(C)(C)c1ccc(O)c(Cc2ccc(Cl)cc2Cl)c1", "activity change, negative = inhibition": 9.52}
{"smiles": "Cc1ccc(S(=O)(=O)NC(=O)NN2CCCCCC2)cc1", "activity change, negative = inhibition": -4.28}
{"smiles": "COc1cccc(OC)c1C(=O)N[C@@H]1C(=O)N2[C@@H]1SC(C)(C)[C@@H]2C(=O)O", "activity change, negative = inhibition": 49.3}
{"smiles": "CC(=O)CC/C=C(\\C)CC/C=C(\\C)CC/C=C(\\C)CCC=C(C)C", "activity change, negative = inhibition": 40.4}
{"smiles": "CCCCNc1c(C(=O)OCC)c(C)nc2c1cnn2CC", "activity change, negative = inhibition": 11.2}
{"smiles": "COc1cc(NC(C)CCCN)c2ncccc2c1", "note": "(stereo not drawn)", "activity change, negative = inhibition": 48.3}
{"smiles": "CCCCC1(COC(=O)CCC(=O)O)C(=O)N(c2ccccc2)N(c2ccccc2)C1=O", "activity change, negative = inhibition": 46.6}
{"smiles": "O=c1[nH]c(=O)n([C@H]2C[C@H](O)[C@@H](CO)O2)cc1Br", "activity change, negative = inhibition": 11.4}
{"smiles": "Cc1[nH]cnc1-c1ccc(Cl)cc1", "activity change, negative = inhibition": -41.2}
{"smiles": "CCOc1ccc(C(Nc2cccnc2)c2cc(Cl)c3cccnc3c2O)cc1", "note": "(stereo not drawn)", "Potency": "active: 10 µM"}
{"smiles": "CN1CCN(c2ccc(NC(=O)c3ccc(-c4ccc(Br)cc4)o3)cc2)CC1", "Potency": "active: 50.1 µM"}
{"smiles": "NC(N)=Nc1nc(CSCC/C(N)=N/S(N)(=O)=O)cs1", "activity change, negative = inhibition": -18.7}
{"smiles": "Cc1cc(-c2ccccc2)nnc1NCCN1CCOCC1", "activity change, negative = inhibition": -18.3}
{"smiles": "CC(=O)O[C@@H]1C(=O)O[C@@H]2[C@H]1OC(=O)[C@@H]2OC(C)=O", "activity change, negative = inhibition": -12.3}
{"smiles": "CC/C(=C(/CC)c1ccc(O)cc1)c1ccc(O)cc1", "activity change, negative = inhibition": -20.1}
{"smiles": "CSc1ccc2c(c1)N(CCC1CCCCN1C)c1ccccc1S2", "note": "(stereo not drawn)", "activity change, negative = inhibition": 26.7}
